Results are given in words; binding and its absence hold for the method and conditions named. Some binding calls cover weakened binding; strength is not graded here.
What was measured:
[1] = biological target: collagen type X alpha-1 fragment carrying the N-terminus neo-epitope 479GIATKG, in human OA articular cartilage sections (human) (UniProt Q03692); assay: immunohistochemistry on human OA cartilage sections
[2] = biological target: collagen type X alpha-1 fragment carrying the N-terminus neo-epitope 479GIATKG, in human OA articular cartilage sections (human) (UniProt Q03692); assay: immunohistochemistry on human OA cartilage sections (FIG. 3C legend)

The chains behind the UniProt entries cited, without tags or fusion partners. Residues count along the entry.
UniProt Q03692, residues 479-680: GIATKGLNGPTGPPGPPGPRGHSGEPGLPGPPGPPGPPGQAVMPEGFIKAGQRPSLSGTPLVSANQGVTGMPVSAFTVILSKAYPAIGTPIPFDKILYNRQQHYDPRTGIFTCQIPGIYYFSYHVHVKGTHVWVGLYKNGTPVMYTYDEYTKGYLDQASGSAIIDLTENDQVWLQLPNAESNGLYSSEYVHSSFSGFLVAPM

B1: monoclonal antibody NB117-2F4 (antibody, mouse IgG2b, kappa, V domains shown)
VH: EVQLQESGPSLVKPSQTLSLTCSVTGDSITSGFWSWIRKFPGNKLEFMGYIKYSGDTYFNPSLKSRISITRDTSKNQYYLQLNSVTPEDTATYYCSDMDYWGQGTSVTVSS
VL: DVVMTQTPRSLPVSLGDQASISCRSSQSLVHNNGNTYLHWYLQMPGQSPKLLIYKVSNRFSGVPDRFSGSGSGTDFTLKISRVEAEDLGVYFCSQITHVPWTFGGGTKLEIKR
With B1 the binding [1] was “binds” and the binding [2] was “binds”.

Reference: US20220146528A1
